In publication PMC9821108, “Biochemical and Structural Analyses Shed Light on the Mechanisms of RadD DNA Binding and Its ATPase from Escherichia coli” (International Journal of Molecular Sciences, 2023) one finds binding signal data, which are given here for 1 sequence.

Common to all, as to test: EMSA
For data set [1], the target named is T1, RadD ZFD-CTD (Escherichia coli) (UniProt P33919).
T1 sequence (looked up, limits assumed): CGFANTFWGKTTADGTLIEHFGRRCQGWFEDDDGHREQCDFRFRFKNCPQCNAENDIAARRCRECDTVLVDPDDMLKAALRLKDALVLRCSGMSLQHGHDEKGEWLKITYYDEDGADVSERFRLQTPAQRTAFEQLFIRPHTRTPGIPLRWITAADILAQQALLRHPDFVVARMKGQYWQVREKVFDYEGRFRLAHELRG
The settings on record: 20 mM Bis-Tris pH 6.5, 50 mM NaCl, 15% glycerol, 10 mM beta-mercaptoethanol, 37 C 30 min, 33 nM HJ, 0-20 uM RadD; 8% native PAGE in 0.5x TBE; text says 'branched DNA'; recombinant protein; folded or branched DNA.

Data set [2] deals with T2, RadD RD1-RD2 (Escherichia coli) (UniProt P33919).
T2 sequence (looked up, limits assumed): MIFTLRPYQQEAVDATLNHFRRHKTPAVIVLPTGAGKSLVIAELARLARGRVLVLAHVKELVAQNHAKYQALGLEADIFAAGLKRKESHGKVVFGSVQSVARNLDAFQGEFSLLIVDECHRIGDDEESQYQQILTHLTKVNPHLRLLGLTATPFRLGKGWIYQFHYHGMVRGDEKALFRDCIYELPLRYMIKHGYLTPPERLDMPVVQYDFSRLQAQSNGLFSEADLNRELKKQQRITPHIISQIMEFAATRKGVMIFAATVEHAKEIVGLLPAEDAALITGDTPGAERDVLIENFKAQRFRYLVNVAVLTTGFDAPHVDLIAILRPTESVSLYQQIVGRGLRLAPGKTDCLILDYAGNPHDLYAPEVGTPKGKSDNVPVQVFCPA
Conditions: stated as cannot bind branched DNA; 20 mM Bis-Tris pH 6.5, 50 mM NaCl, 15% glycerol, 10 mM beta-mercaptoethanol, 37 C 30 min, 33 nM HJ, 0-20 uM RadD; 8% native PAGE in 0.5x TBE; text says 'branched DNA'; recombinant protein; folded or branched DNA; counted as no binding.

For data set [3], the target named is T3, RadD (Escherichia coli) (UniProt P33919).
T3 sequence (looked up, limits assumed): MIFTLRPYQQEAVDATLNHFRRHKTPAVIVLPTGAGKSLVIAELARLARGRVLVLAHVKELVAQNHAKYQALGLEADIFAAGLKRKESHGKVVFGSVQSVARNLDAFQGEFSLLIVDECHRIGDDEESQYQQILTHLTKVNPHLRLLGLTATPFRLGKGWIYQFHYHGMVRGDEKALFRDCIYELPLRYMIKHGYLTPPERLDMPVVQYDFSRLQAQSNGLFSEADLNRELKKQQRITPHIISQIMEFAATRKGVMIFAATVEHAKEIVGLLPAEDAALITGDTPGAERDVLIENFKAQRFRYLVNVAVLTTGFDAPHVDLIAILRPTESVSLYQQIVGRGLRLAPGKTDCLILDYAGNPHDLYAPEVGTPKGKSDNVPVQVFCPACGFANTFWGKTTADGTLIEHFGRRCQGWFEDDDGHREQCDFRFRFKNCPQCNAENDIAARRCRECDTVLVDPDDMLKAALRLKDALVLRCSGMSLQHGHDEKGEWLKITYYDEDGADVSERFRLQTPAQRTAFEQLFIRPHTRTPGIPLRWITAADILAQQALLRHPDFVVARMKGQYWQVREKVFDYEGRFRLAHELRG
Conditions: no ATP stated, 0-20 uM RadD, 33 nM HJ, 20 mM Bis-Tris pH 6.5, 50 mM NaCl, 15% glycerol, 10 mM beta-mercaptoethanol, 37 C 30 min, 8% native PAGE in 0.5x TBE, text says 'branched DNA', recombinant protein, folded or branched DNA.

The exact form of at least one protein or probe is not confirmed. The direction of at least one scale is not stated here. Protein sequences can lack the tags named with them.

Consider “CCGCTACCAGTGATCACCAATGGATTGCTAGGACATCTTTGCCCACCTGCAGGTTCACCC / TGGGTGAACCTGCAGGTGGGCAAAGATGTCCTAGCAATCCATTGTCTATGACGTCAAGCTC / GAGCTTGACGTCATAGACAATGGATTGCTAGGACATCTTTGCCGTCTTGTCAATATCGGC / TGCCGATATTGACAAGACGGCAAAGATGTCCTAGCAATCCATTGGTGATCACTGGTAGCGG [Holliday junction (HJ)]”, for which the binding signal in data set [1] is 69 % of WT; in data set [2] it was 6 % of WT; in data set [3] it was 100%.
